Data on three sequences can be found in article PMC3936768, “Transcription factor abundance controlled by an auto-regulatory mechanism involving a transcription start site switch”.

In data set [1] the target is T1, ZNF143 DBD (UniProt P52747).
T1 sequence (looked up, limits assumed): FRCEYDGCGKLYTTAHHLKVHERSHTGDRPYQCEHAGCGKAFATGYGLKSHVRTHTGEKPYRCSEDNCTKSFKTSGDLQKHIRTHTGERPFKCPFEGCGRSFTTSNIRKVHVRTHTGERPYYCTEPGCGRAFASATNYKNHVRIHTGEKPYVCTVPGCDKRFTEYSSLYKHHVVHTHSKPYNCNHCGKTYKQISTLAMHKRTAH
Briefly: competition EMSA. The following applies: labeled BUB1B optimal probe; 20 fmol 32P probe; 4% native PAGE in 0.25x TBE; recombinant protein; label: 5' 32P (unlabeled as competitor); scale: fold weaker than BUB1B optimal site.

Data set [2] addresses T1, ZNF143 DBD. Briefly: competition with a labelled probe. The following applies: labeled BUB1B optimal probe, negative control; competition: 20 min preincubation at room temperature, 10 uL; competitor excess 200-fold (Methods) or 1000-fold (Fig 2E legend); recombinant protein; letters put together from the description.

Construct, isoform or probe ends are uncertain for at least one entry. For part of these data: A negative result means that nothing was seen under these conditions. For part of these data: At least one verdict was read from the data and is not stated in words by the source. Where a protein sequence is shown, tags need not be part of it. For part of these data: The direction of at least one scale is not stated here.

Consider “TTTTACCCAGTGTGCATTATTCTCC (double strand) [SBS/C]”, for which the binding signal with ZNF143 DBD [1] was found to be 18.
Still for that read-out and setting: under “TGTCCTGGTGCATGGTGGTCGGA (double strand) [SBS/B]” stands 80.
Consider “CCGCGAACTCGCGGTGCATAAGTTTAAGGTCTGTTTTTGCC (double strand) [unspecific competitor]”, for which the binding result in the data set with ZNF143 DBD [2] is reported as “no binding”.
